# Test results: publication doi:10.1101/2024.02.29.582672
# The chains behind the UniProt entries cited, without tags or fusion partners.
# UniProt Q2HR95: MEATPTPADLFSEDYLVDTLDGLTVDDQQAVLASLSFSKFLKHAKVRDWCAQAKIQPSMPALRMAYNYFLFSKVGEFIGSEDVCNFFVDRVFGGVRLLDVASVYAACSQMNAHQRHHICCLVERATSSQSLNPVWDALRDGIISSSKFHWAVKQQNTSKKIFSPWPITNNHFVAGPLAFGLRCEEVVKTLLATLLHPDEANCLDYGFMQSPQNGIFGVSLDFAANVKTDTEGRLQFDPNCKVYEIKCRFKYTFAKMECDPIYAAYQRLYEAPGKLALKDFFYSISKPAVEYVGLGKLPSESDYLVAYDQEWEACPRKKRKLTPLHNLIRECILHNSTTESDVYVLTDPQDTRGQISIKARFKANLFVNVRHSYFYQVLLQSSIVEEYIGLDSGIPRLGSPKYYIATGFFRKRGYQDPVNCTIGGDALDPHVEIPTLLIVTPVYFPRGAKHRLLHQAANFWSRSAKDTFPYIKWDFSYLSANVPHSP
# UniProt Q86WV6: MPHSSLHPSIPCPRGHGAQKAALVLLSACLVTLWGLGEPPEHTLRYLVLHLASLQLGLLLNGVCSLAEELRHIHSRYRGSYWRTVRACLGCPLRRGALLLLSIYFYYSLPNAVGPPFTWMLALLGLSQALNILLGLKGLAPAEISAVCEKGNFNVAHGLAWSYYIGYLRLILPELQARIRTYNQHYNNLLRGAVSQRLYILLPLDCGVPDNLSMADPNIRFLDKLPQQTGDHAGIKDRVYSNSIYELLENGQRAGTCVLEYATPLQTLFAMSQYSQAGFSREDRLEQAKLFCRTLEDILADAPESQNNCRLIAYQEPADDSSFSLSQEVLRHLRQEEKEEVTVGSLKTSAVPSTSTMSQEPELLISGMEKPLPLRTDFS
# These are yes or no findings as the source states them, for the method shown. Binding seen in cells or lysates may run through a third protein.
# Biological target: KSHV ORF37, STREP-tagged (pCDNA4.TO-ORF37-2xCSTREP) (Kaposi's sarcoma-associated herpesvirus (KSHV)) (UniProt Q2HR95)
# Experiment: co-IP; HEK293T cells transfected with HA-STING and empty backbone, STREP-ORF37 or STREP-ORF48; 48 h later lysates immunoprecipitated with STREP antibody and protein A/G beads; blots with HA or STREP antibodies
substance,measurement,value
HA-STING (stimulator of interferon genes) (from UniProt Q86WV6 1-379),binding,no binding
